Measured values taken from PubChem BioAssay AID588590 (National Center for Advancing Translational Sciences (NCATS), 2011).
About 4,000 (1%) of roughly 390,000 compounds were called active. This list was built around the results that the source calls inconclusive (neither active nor inactive); the mix of calls is not that of the screen. The call rests on the fitted dose curve; in most records, active means well fitted inhibition curve with a large enough effect; inconclusive means small, poorly fitted or top-dose-only effect, or another doubt; inactive means no such curve, though single readings can be large or run the other way. A potency beside an inconclusive call is a rough fit, not a confirmed value.

Sequences of proteins named here, by UniProt entry; tags and fusion partners are left off. A change or cut given only in a name is not applied to a line headed by its entry.
UniProt Q9UNA4: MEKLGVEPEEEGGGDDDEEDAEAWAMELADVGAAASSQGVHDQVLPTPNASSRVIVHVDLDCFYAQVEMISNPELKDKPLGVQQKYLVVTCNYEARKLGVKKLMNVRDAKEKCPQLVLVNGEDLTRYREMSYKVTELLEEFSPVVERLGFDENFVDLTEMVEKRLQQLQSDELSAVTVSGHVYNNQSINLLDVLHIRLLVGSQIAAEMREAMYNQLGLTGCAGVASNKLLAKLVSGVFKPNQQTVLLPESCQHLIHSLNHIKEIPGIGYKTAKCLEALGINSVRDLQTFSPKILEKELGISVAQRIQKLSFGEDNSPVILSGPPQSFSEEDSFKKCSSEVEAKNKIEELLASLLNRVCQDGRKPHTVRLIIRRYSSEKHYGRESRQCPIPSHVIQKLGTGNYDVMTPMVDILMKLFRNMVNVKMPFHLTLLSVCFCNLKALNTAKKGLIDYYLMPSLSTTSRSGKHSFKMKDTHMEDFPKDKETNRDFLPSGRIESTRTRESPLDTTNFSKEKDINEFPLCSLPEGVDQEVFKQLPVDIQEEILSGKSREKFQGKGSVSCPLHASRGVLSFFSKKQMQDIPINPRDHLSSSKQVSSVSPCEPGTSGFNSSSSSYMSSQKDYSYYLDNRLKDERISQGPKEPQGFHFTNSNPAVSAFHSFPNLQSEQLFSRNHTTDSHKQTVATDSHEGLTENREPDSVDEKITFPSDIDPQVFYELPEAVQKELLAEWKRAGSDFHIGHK

These molecules were tested against DNA polymerase iota (Homo sapiens) (UniProt Q9UNA4) (assay: qHTS for Inhibitors of Polymerase Iota). Settings: Pol iota fluorescent replication assay, 10 min; series mostly up to 115 µM.
Procedure, shortened: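 Fluorescent replication assay read twice, at 0 min and 10 min after adding 50 nM (final) substrate. Enzyme (10 nM) and compounds were first incubated 15 min at room temperature; enzyme-free buffer wells were negative controls.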
Potency means the concentration at half of the fitted maximal effect.

`CCCCOc1ccc(C(C)NC(=O)CN2C(=O)CSc3ccc(S(=O)(=O)N4CCOCC4)cc32)cc1` (centres undefined) was tested. Which Potency did it give?
The Potency was “inactive”.

Which Potency does the source give for `NC1=NN=C(N2N=C(c3ccccc3)CC2(O)C(F)(F)F)n2ncnc2C1` (centres undefined) here?
Its Potency is inconclusive: 0.708 µM [inhibitor, full curve, poor fit].

How did the Potency turn out when `COc1ccc(NC(=O)c2ccco2)cc1NC(=O)c1cc(Cl)ccc1OC` was run?
The Potency was “inactive”.

`CN(CC(=O)Nc1n[nH]c(=S)s1)S(=O)(=O)c1cccc2cccnc12` was tested. Which Potency did it give?
The Potency was inconclusive: 56.2 µM [inhibitor, single point].

For `Nc1ccc(/C=C/c2nccc3ccccc23)cc1`, which Potency is on record?
The Potency was inconclusive: 89.1 µM [inhibitor, single point].

`Cc1ccc(NC(=O)C2CCN(S(=O)(=O)c3ccc4c(c3)NC(=O)C(C)S4)CC2)cc1C` (centres undefined) was tested. Which Potency did it give?
Its Potency is “inactive”.

With `Cc1c(C(=O)OC2CCCCC2)[nH]c2c1C(=O)CC(c1ccc(F)cc1)C2` (centres undefined) as the molecule, how does the Potency read?
The Potency was inconclusive: 3.16 µM [inhibitor, full curve, poor fit].

For `COc1ccc(-c2[nH]nc3nc(-c4cc(Br)ccc4OC)cc(C(=O)O)c23)cc1`, which Potency is on record?
The Potency was inconclusive: 79.4 µM [inhibitor, single point].

With `COc1cc(-c2oc3cc(O)cc(O)c3c(=O)c2O[C@@H]2O[C@H](COC3O[C@@H](C)[C@H](O)[C@@H](O)[C@H]3O)[C@@H](O)[C@H](O)[C@H]2O)ccc1O` (some centres undefined) as the molecule, how does the Potency read?
Its Potency is inconclusive: 89.1 µM [inhibitor, single point].

For `CC(C)(C)NCCOCCOc1ccc(Cl)cc1C(C)(C)C`, which Potency is on record?
Its Potency is inconclusive: 0.631 µM [inhibitor, full curve, poor fit].

`O=c1c2cc3c(cc2nc2sc(Nc4cccc([N+](=O)[O-])c4)nn12)OCO3` was tested. Which Potency did it give?
The Potency was inconclusive: 79.4 µM [inhibitor, single point].

Which Potency does the source give for `Oc1ccc(/C=N/n2c(C3CCCCC3)n[nH]c2=S)c(O)c1` here?
Its Potency is inconclusive: 28.2 µM [inhibitor, full curve, poor fit].

How did the Potency turn out when `Cc1c(N=C2C=C(Br)C(=O)C(Br)=C2)c(=O)n(-c2ccccc2)n1C` was run?
The Potency was active: 3.98 µM.

How did the Potency turn out when `O=C(Nc1cccc(Br)c1)c1ccc2c(c1)SC1=NS(=O)(=O)CCN12` was run?
Its Potency is inconclusive: 1.26 µM [inhibitor, full curve, poor fit].

With `Cc1ccc(C(=O)N/N=C/c2nc3ccccc3n2C)cc1` as the molecule, how does the Potency read?
The Potency was inconclusive: 70.8 µM [inhibitor, partial curve].

Which Potency does the source give for `CCOC(=O)c1c(NC(=O)c2ccc(OCC)c(Br)c2)sc2c1CCCC2` here?
Its Potency is “inactive”.

For `O=c1cc(N2CCc3ccccc3C2)[nH]c(=O)n1-c1ccc(Cl)cc1`, which Potency is on record?
Its Potency is inconclusive: 56.2 µM [inhibitor, partial curve, poor fit].

For `Cc1cc2oc(=O)c(CC(=O)NCCc3ccccc3F)c(C)c2c2occ(C(C)(C)C)c12`, which Potency is on record?
The Potency was “inactive”.

Which Potency does the source give for `COc1ccccc1NC(=O)C1=C(C)Nc2nc(SC)nn2C1c1ccccc1Cl` (centres undefined) here?
The Potency was “inactive”.

For `C[C@@H]1CN([C@H](C)CO)C(=O)c2cc(NC(=O)c3ccncc3)ccc2O[C@@H]1CN(C)C(=O)Nc1ccccc1`, which Potency is on record?
The Potency was inconclusive: 25.1 µM [inhibitor, full curve, poor fit].

With `Cc1ccc2cc3c(N)c4c(C)ccc(C)c4nc3nc2c1` as the molecule, how does the Potency read?
Its Potency is inconclusive: 22.4 µM [inhibitor, partial curve].

Which Potency does the source give for `COc1ccc(OC)c(C(=O)NC(CC(N)=O)c2ccc(N3CCC(N4CCCCC4)CC3)c([N+](=O)[O-])c2)c1` (centres undefined) here?
The Potency was inconclusive: 15.8 µM [inhibitor, partial curve, poor fit].

How did the Potency turn out when `CCOC(=O)c1cc(S(=O)(=O)NCc2ccc(Cl)cc2)[nH]n1` was run?
Its Potency is inconclusive: 28.2 µM [inhibitor, partial curve, poor fit].

`CCN1CCN(Cc2ccc(NC(=O)c3ccc(C)c(/C=C/c4cnc(Nc5cc(N6CCNCC6)nc(C)n5)cn4)c3)cc2C(F)(F)F)CC1` was tested. Which Potency did it give?
Its Potency is inconclusive: 28.2 µM [inhibitor, partial curve, poor fit].

`CCn1c(N)c(C(=O)Nc2ccccc2C(=O)OC)sc1=S` was tested. Which Potency did it give?
Its Potency is inconclusive: 15.8 µM [inhibitor, partial curve, poor fit].

`CCN(Cc1ccccc1)S(=O)(=O)c1cc(Br)cc2c1N(C(=O)C1CC1)CC2` was tested. Which Potency did it give?
The Potency was “inactive”.

Which Potency does the source give for `COc1ncnc(OC)c1NC(=O)c1ccc(F)cc1` here?
Its Potency is inconclusive: 10 µM [inhibitor, single point].

How did the Potency turn out when `N#C/C(=C\c1ccccc1C(=O)O)c1nc2ccccc2[nH]1` was run?
Its Potency is “inactive”.

`COc1ccc(NC(=O)CNC(=O)Cn2c(C)cc3ccccc3c2=O)c(OC)c1` was tested. Which Potency did it give?
The Potency was “inactive”.

Which Potency does the source give for `O=C(CCC(=O)Nc1ccc(Br)cc1)N/N=C/c1ccc(F)cc1` here?
Its Potency is inconclusive: 39.8 µM [inhibitor, single point].

`Cc1ccc2sc(NC(=O)CN3C(=O)c4ccccc4C3=O)nc2c1C` was tested. Which Potency did it give?
The Potency was inconclusive: 39.8 µM [inhibitor, single point].

`CCCCNc1c(-c2ccc(OC)c(Sc3ccc(OC)cc3)c2)nc2cnccn12` was tested. Which Potency did it give?
The Potency was inconclusive: 15.8 µM [inhibitor, partial curve, poor fit].

Which Potency does the source give for `Cc1ccc(CSc2nnc(SCC(=O)N/N=C/C=C/c3ccco3)s2)cc1` here?
The Potency was inconclusive: 79.4 µM [inhibitor, partial curve, poor fit].

How did the Potency turn out when `C=CCn1c(SCC(=O)NCC2CCCO2)nc2sc(C)c(C)c2c1=O` (centres undefined) was run?
Its Potency is “inactive”.

With `Cc1ccc(-c2csc(N3CCN(c4cc5c(cc4Cl)nc(C(C)N)n5CCCO)CC3)n2)cc1` (centres undefined) as the molecule, how does the Potency read?
Its Potency is inconclusive: 31.6 µM [inhibitor, partial curve, poor fit].

How did the Potency turn out when `O=[N+]([O-])c1ccc(F)cc1Oc1nc(-c2cccnc2)nc2ccccc12` was run?
Its Potency is inconclusive: 35.5 µM [inhibitor, single point].

For `CCc1nnc(NC(=O)CSc2nc3c([nH]c4ccccc43)c(=O)n2-c2ccc(Cl)cc2)s1`, which Potency is on record?
Its Potency is “inactive”.

With `CC1(C)C2CCC(C2)C1(C)NC(=O)CNC1CCCCC1` (centres undefined) as the molecule, how does the Potency read?
The Potency was inconclusive: 35.5 µM [inhibitor, partial curve, poor fit].

Which Potency does the source give for `O=C1SCCN1N=Cc1ccc([N+](=O)[O-])o1` here?
Its Potency is inconclusive: 25.1 µM [inhibitor, partial curve].
